The other results are listed elsewhere or left out. The main result of the screen is listed elsewhere. These columns were measured beside it and carry no call. Compounds called inactive in the main read-out are mostly missing here. Potencies come from curve fits of mixed quality, noted in brackets.
Assay: qHTS Assay to Find Inhibitors of Chronic Active B-Cell Receptor Signaling
Settings: ABC-DLBCL IkBa-CBG/CBR reporter, luminescence ratio (green luciferase fused to IkBa over red control in TMD8 lymphoma cells), 4 h
Method in brief: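 TMD8 human ABC-DLBCL cells with doxycycline-inducible IκBα–green luciferase fusion and unfused red luciferase, in 0.5% FBS medium; compounds up to 46 uM, 4 h at 37C. Green/red luminescence ratio, filter-overlap corrected, fitted to concentration-response curves.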

[1] = measured here: CBR red luminescence, cell number

With `Cc1cc(O)c(C(=O)Cc2csc(C)n2)c(O)c1` the AC50 [1] was 15.8 µM [falling, single point].

In the case of `O=C(CNC(=S)N(Cc1ccccc1)Cc1ccccc1F)NCc1ccc(Cl)cc1`, the AC50 [1] is reported as 35.5 µM [falling, single point].

In the case of `O=C(NCc1ccc2c(c1)CCO2)Nc1cccc(C(F)(F)F)c1`, the AC50 [1] is reported as 35.5 µM [falling, single point].

With `O=C(CCN1C(=O)/C(=C/c2ccc(F)cc2)SC1=S)Nc1cc([N+](=O)[O-])ccc1O` the AC50 [1] was 14.1 µM [falling, partial curve, poor fit].

In the case of `Nc1ccc2nc(-c3cccs3)[nH]c2c1`, the AC50 [1] is reported as 29.1 µM [falling, single point].

With `CC(=O)/C(=C/N(C)C)Sc1ccc(C)cc1` the AC50 [1] was 6.51 µM [rising, single point].

For `Cc1c(Cl)ccc2c(C(=O)NC(C)c3ccncc3)cc(-c3ccncc3)nc12` (stereo not drawn), the AC50 [1] was 35.5 µM [falling, single point].

With `Cn1c(=O)cc(OCCCC(=O)NC2CCCC2)c2ccccc21` the AC50 [1] was 2.51 µM [rising, full curve, poor fit].

With `CCc1ccc(CN2CCCC(C(=O)Nc3ccccc3-c3ccc(OC)cc3)C2)o1` (stereo not drawn) the AC50 [1] was 22.4 µM [falling, single point].

With `O=[N+]([O-])c1ccc(N2CCOCC2)cc1NCc1ccccc1` the AC50 [1] was 20 µM [rising, single point].

With `C/C(CC(=O)Nc1ccc2c(c1)OCCO2)=N\NC(=O)c1ccccc1F` the AC50 [1] was 17.8 µM [falling, partial curve, poor fit].

For `COc1ccc(-c2nnc(SC(C(=O)c3c[nH]c4ccccc34)c3ccccc3)n2N)cc1OC` (stereo not drawn), the AC50 [1] was 23.1 µM [falling, single point].

With `Cc1cccc2cc(C#N)c(NCCNC(=S)NCCCN3CCOCC3)nc12` the AC50 [1] was 32.6 µM [falling, single point].

In the case of `O=C1Oc2ccccc2C(=O)/C1=C/c1ccccc1O`, the AC50 [1] is reported as 3.55 µM [falling, partial curve, poor fit].

With `O=C(O)c1cc([N+](=O)[O-])c(Nc2cccc3ccccc23)c([N+](=O)[O-])c1` the AC50 [1] was 0.708 µM [falling, full curve, poor fit].

For `N#Cc1ccccc1NC(=O)CNc1ccc(Cl)c(C(F)(F)F)c1`, the AC50 [1] was 29.1 µM [falling, single point].

With `CC1(CCC(=O)N2CCCC(N3CCN(c4ccc(F)cc4)CC3)C2)CC1` (stereo not drawn) the AC50 [1] was 0.562 µM [falling, full curve, poor fit].

For `CCOC(=O)c1ccc(NC(=O)N2CCc3ccccc32)cc1`, the AC50 [1] was 16.4 µM [falling, partial curve, poor fit].

With `CCc1ccc(OCC(=O)Nc2ccc(S(=O)(=O)N3CCOCC3)cc2)cc1` the AC50 [1] was 8.2 µM [rising, partial curve].

For `CCCCSc1nnc(-c2ccc(OC)cc2)n1C`, the AC50 [1] was 2.31 µM [falling, single point].

In the case of `CCc1ccc(C(CNc2nc(C(F)(F)F)nc3ccccc23)N(C)C)cc1` (stereo not drawn), the AC50 [1] is reported as 22.4 µM [falling, single point].

With `Brc1ccc2nc(-c3c[nH]c4ccccc34)cn2c1` the AC50 [1] was 0.631 µM [rising, partial curve, poor fit].

For `COc1ccc(NC(=O)CCCc2ccccc2)cc1OC`, the AC50 [1] was 6.31 µM [rising, partial curve, poor fit].

For `c1ccc(Sc2ncnc3c2oc2ccccc23)nc1`, the AC50 [1] was 29.1 µM [falling, single point].

For `COc1ccc(COCC(O)CN2CCC(CN3C(=O)c4cccc5cccc(c45)C3=O)CC2)cc1OC` (stereo not drawn), the AC50 [1] was 23.1 µM [falling, partial curve, poor fit].

In the case of `COc1cccc(C(=O)O/N=C(\N)c2ccncc2)c1`, the AC50 [1] is reported as 14.1 µM [falling, single point].

With `S=C(Nc1ccc(N2CCOCC2)cc1)Nc1ccc2snnc2c1` the AC50 [1] was 35.5 µM [rising, single point].

With `Cc1ccc(CSC2=NCCN2C(=O)C2CC2)cc1` the AC50 [1] was 1.46 µM [rising, full curve, poor fit].

In the case of `Cc1nn(-c2ccc(Cl)c(Cl)c2)c(C)c1C(=O)O`, the AC50 [1] is reported as 35.5 µM [rising, single point].

In the case of `CC(C)n1nnnc1SCC(=O)Nc1ccc2c(c1)OCCO2`, the AC50 [1] is reported as 17.8 µM [falling, single point].

With `O=C(/C=C/c1ccc(Cl)cc1Cl)c1ccc[nH]1` the AC50 [1] was 35.5 µM [falling, single point].

With `Cc1cc(C(=O)NCc2ccco2)c2cc(F)ccc2n1` the AC50 [1] was 22.4 µM [falling, single point] and the AC50 (measured here: IkBa-CBG green luminescence) was 7.08 µM [rising, partial curve, poor fit].

From PubChem BioAssay AID493014 (National Center for Advancing Translational Sciences (NCATS), 2011)
